## Library screen at single concentrations

Source: ChEMBL document CHEMBL3988442, “University of Dundee, Small-Polar-MMV Screening Library” (2021).

Each number is a percent effect as filed.
The controls that fix the scale are not given in the record; negative values are as filed.
Compounds were drawn at random from those tested, without regard to their results.

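Whole-parasite assay of Trypanosoma brucei over 72 hours; the read-out is not stated. Compounds at 30 µM. Higher reads as stronger inhibition (inferred: compounds with an IC50 in retests scored well above the rest). Values scatter widely below zero; nearly all retest evidence comes from the higher of the two concentrations used. Of about 64,000 compounds tested this way, about 940 (1.5%) reached 50% or more in at least one test.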

Compound,percent effect
Cc1nc(C)c(C(=O)N2Cc3ccccc3OCC2Cn2ccnc2)s1 (stereo not drawn),0.1289
CCOc1cc(F)ccc1NS(=O)(=O)c1cc(C)c(C(=O)O)s1,-9.323
CN(C(=O)NC1CC1)C1CCN(c2ccc(Cl)cc2)CC1,-50.01
[H][C@@]12COC[C@H](c3nc(C)no3)[C@]1([H])CN(C(=O)Cc1cccc(F)c1)C2,-10.27
CN1CCN(c2cc(CNC(=O)c3ccc(=O)n(C)c3)ccn2)CC1,-12.32
Cn1cnnc1C1CCCN(C(=O)Cc2ccc3c(c2)OCCO3)C1 (stereo not drawn),-17.4
O=C(O)C(F)(F)F.O=C(O)C(F)(F)F.O=C1CC2(CCN(Cc3cccnc3)C2)CN1c1ccc2c(c1)OCO2 (stereo not drawn),-0.5653
CC(C)CC(C)(CNC(=O)c1cnccn1)NC(=O)c1cnccn1 (stereo not drawn),5.894
CCOCC(O)CN1CCN(C(=O)Cc2cccc(C)c2)CC1 (stereo not drawn),2.67
NC(=O)c1ccc(S(=O)(=O)NCCc2ccccn2)cc1,-13.77
[H][C@]12CN(Cc3ccccc3Cl)C[C@]1([H])N(CCOC)C(=O)CO2,-11.94
CC(CCc1ccccc1F)C(=O)NS(C)(=O)=O (stereo not drawn),-7.222
Cc1nc(CN)cc(N2CCC(O)(c3ccc(Cl)cc3)CC2)n1,-83.11
COc1cc(C2(C(=O)NC3CCC4(CC3)OCCO4)CC2)ccc1C,-18.3
Cc1ccc(S(=O)(=O)NCc2[nH]ncc2Br)cc1C,-753.8
CN(C)C(=O)C1CCN(C2CCN(CC3CCC3)CC2)CC1.O=C(O)C(F)(F)F.O=C(O)C(F)(F)F,2.486
C=C(C)CN(CC)Cc1nc(C(C)(C)C)no1,-21.44
Cc1nc(CN2CCCC2Cn2ccnc2C(C)C)nc2ccccc12 (stereo not drawn),-107.8
Cc1nc(N2CCCC2)nc2c1CCN(C(=O)C1CCCC1)CC2,40.58
Cc1noc2ncnc(N(C)Cc3ccco3)c12,-23.73
O=C(Nc1ccc2c(c1)C(=O)NC2)c1ccc(S(=O)(=O)C(F)(F)F)cc1,11.83
Cc1ncc2c(n1)CCN(Cc1nc(Cc3ccccc3)no1)C2,-14.18
CC(C)n1c(C2CCCN(CC(=O)NC(N)=O)C2)nc2ccccc21 (stereo not drawn),-30.12
CN(C)c1ncc(-c2cc(C(=O)NCCC#N)n(CC3CC3)c2)cn1.O=C(O)C(F)(F)F,-1.079
Cn1cc(CN2CCn3c(CNC(=O)c4cccn4C)cnc3C2)cn1.O=C(O)C(F)(F)F,13.24
[H][C@@]12CCN(C(=O)c3ccsc3)C[C@@]1([H])O[C@H](c1noc(C)n1)C2,-17.11
Fc1ccc(N2CCC3(CC2)CC(OCc2cccnc2)CO3)cc1.O=C(O)C(F)(F)F (stereo not drawn),27.13
O=C(CCc1cccs1)N1CCC(N2CCNC2=O)CC1,-4.674
CC(C)S(=O)(=O)N1CCOC(CCc2ccccc2)C1 (stereo not drawn),-3.489
CCOC(=O)N1CCN(C(=O)C2Cc3ccccc3CN2C)CC1 (stereo not drawn),-52.69
CCN(Cc1c(C)nn(CC)c1C)S(=O)(=O)c1cnn(C)c1,-3.125
O=C(O)C(F)(F)F.O=C(O)C(F)(F)F.O=C1COC2(CCN(Cc3cccnc3)CC2)CN1c1ccccc1,-61.69
CCNC(=O)N1CCC(NC(=O)NCCc2ccc(C)cc2C)C1 (stereo not drawn),10.95
COc1cc(NC(=O)N2CCCC2c2nncn2C)ccc1Br (stereo not drawn),13.25
CC(C)(C)c1ncc(CNCC2CN(C3CC3)CCO2)s1 (stereo not drawn),-21.45
Cc1nc(C2CCN(S(C)(=O)=O)CC2)nc2c1CCC(=O)N2CC(C)C,-13.49
C[C@H]1CN(Cc2cnn(C)c2)C[C@@]12CCN(Cc1cccnc1)C2=O,-14.83
Cc1nc(-c2cnn(C)c2)nc2c1CN(C(=O)c1cccn1C)CC2,-77.15
CN(CCN1CCOCC1)C(=O)CCc1ccc(C(F)(F)F)cc1,8.229
[H][C@@]12CCN(C(=O)Cc3ccc(F)cc3OC)C[C@]1([H])OCCNC2=O,-8.099
CC(C(=O)Nc1nccs1)N1CCc2nn(C)c(=O)cc2C1 (stereo not drawn),-43.06
COc1cccc(C2=CCN(CCN3CCCC3=O)CC2)c1,-265.7
Cc1noc(CNc2ccccc2C(=O)N2CCCC(O)C2)n1 (stereo not drawn),-20.68
CC(C)c1ccc(C(=O)O)cc1S(=O)(=O)Nc1ccc(=O)n(C)c1,-4.602
Cc1nsc(C(=O)NCCc2ccc(Cl)cc2)n1,-1.278
Cc1noc(C)c1CN1CCCC1C(=O)OCc1ccccc1 (stereo not drawn),-14.92
CC(C)NC(=O)N1CCC2(CC(=O)N(c3cccc(F)c3)C2)C1 (stereo not drawn),18.04
CNC(=O)c1cc2c(nc1NCC1CC1)CCN(CC1CC1)CC2.O=C(O)C(F)(F)F.O=C(O)C(F)(F)F,-13.18
O=C(CC1CC1)N1CCc2ncc(CN3CCOCC3)n2CC1.O=C(O)C(F)(F)F,-125.2
CCc1nc(C2CCCN2Cc2ccno2)no1 (stereo not drawn),-3.497
Cc1ccc(CN[C@@H]2COC[C@H]2Cc2cc(C)no2)cc1.O=C(O)CC(O)(CC(=O)O)C(=O)O,4.983
CC(C)OCCCNC(=O)C1CCC(=O)N(C2CCCC2)C1 (stereo not drawn),-18.35
COCCOc1ncccc1C(=O)N1CCCC1Cn1cc(C)cn1 (stereo not drawn),8.943
CC(C)(C)c1nnc(CNc2cc(F)ccc2OCC2CCCO2)o1 (stereo not drawn),-110.1
O=C(c1ccccc1-n1cccn1)N1CCCN(c2cccnn2)CC1,-27.5
CNC(=O)c1cccnc1N1CCN(Cc2ccccc2)C(CCO)C1 (stereo not drawn),-6.214
O=C(CCCNC(=O)Nc1ccc(F)cc1)Nc1cn[nH]c1,-230.1
CC(C)n1ccnc1C1CCCN(Cc2ccc(F)c(F)c2)C1 (stereo not drawn),-79.65
Cc1ccc(N2CCN(C(=O)CCC(F)(F)F)C(C)C2)cc1 (stereo not drawn),-116.6
COCCN1CC(C(=O)NCc2ccc(C)s2)CC1=O (stereo not drawn),-43.78
c1cc(CN2CCc3c(CN4CCCC4)n[nH]c3C2)ccn1,-49.23
O=C(NCCCN1CCCC1=O)Nc1ccc(Br)cc1Cl,43.49
c1ccc(C[C@H]2CN(Cc3nccs3)CC[C@H]2OCC2CC2)cc1,12.29
COc1ncccc1C(=O)N1CCCC(c2cc(C)[nH]n2)C1 (stereo not drawn),-32.1
O=C(O)C(F)(F)F.[H][C@@]12C[C@@H](C(=O)NC(C)C)C[C@@]1([H])N(Cc1ccco1)CCO2,-8.588
COc1cc(CNC2CCc3nc(C(C)C)nn3C2)cc2c1OCO2 (stereo not drawn),0.17
[H][C@@]12OCCN(C(=O)C3CCOCC3)[C@@]1([H])CC[C@H]2OCC1CC1,-4.183
CC(C)CCS(=O)(=O)N1CCCC(c2nncn2C(C)C)C1 (stereo not drawn),-23.22
Cn1cc(NS(=O)(=O)CCOc2ccc(F)cc2)cn1,-13.28

The first 8 entries again:

| Compound | percent effect |
|---|---|
| `Cc1nc(C)c(C(=O)N2Cc3ccccc3OCC2Cn2ccnc2)s1` (stereo not drawn) | 0.1289 |
| `CCOc1cc(F)ccc1NS(=O)(=O)c1cc(C)c(C(=O)O)s1` | -9.323 |
| `CN(C(=O)NC1CC1)C1CCN(c2ccc(Cl)cc2)CC1` | -50.01 |
| `[H][C@@]12COC[C@H](c3nc(C)no3)[C@]1([H])CN(C(=O)Cc1cccc(F)c1)C2` | -10.27 |
| `CN1CCN(c2cc(CNC(=O)c3ccc(=O)n(C)c3)ccn2)CC1` | -12.32 |
| `Cn1cnnc1C1CCCN(C(=O)Cc2ccc3c(c2)OCCO3)C1` (stereo not drawn) | -17.4 |
| `O=C(O)C(F)(F)F.O=C(O)C(F)(F)F.O=C1CC2(CCN(Cc3cccnc3)C2)CN1c1ccc2c(c1)OCO2` (stereo not drawn) | -0.5653 |
| `CC(C)CC(C)(CNC(=O)c1cnccn1)NC(=O)c1cnccn1` (stereo not drawn) | 5.894 |